Results from the M2OR odorant receptor database.
Where a chain is given by its changes, count along the chain named. Only a part is listed here, and it is no random draw. The calls were merged from several studies; some rest on single wells. Some of the results follow.

Chains of the proteins cited; added tags and fusions are not shown. A change or cut given only in a name is not applied to a line headed by its entry. A line that says so, or that is headed by a name, gives the form on record, which may keep a tag or linker.
UniProt Q96R45: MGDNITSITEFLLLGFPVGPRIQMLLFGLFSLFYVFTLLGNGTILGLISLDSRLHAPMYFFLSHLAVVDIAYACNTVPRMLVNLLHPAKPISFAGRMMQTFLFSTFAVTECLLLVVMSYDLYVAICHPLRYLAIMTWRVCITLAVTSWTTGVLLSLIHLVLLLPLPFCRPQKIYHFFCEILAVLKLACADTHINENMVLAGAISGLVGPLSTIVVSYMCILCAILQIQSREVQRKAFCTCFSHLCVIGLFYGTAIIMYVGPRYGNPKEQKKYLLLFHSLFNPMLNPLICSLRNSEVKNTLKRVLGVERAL
OR2C1, as listed by the source: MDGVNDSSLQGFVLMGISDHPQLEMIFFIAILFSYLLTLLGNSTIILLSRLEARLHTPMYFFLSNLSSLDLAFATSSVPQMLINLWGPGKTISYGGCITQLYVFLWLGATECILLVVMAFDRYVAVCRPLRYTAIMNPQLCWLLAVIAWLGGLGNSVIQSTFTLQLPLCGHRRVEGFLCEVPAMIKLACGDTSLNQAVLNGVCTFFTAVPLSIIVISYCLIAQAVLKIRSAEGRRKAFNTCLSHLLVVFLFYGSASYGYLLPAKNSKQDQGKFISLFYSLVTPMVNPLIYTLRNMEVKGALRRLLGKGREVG
OR2A2, as listed by the source: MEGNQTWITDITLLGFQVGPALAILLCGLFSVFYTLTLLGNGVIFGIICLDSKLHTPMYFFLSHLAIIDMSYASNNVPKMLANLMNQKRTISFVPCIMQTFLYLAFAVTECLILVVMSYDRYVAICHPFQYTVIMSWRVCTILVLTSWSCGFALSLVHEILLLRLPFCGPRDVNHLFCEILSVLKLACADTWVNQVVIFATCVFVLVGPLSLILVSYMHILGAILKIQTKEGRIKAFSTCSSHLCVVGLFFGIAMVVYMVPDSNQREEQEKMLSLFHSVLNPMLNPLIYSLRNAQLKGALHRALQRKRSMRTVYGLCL
OR2A7, as listed by the source: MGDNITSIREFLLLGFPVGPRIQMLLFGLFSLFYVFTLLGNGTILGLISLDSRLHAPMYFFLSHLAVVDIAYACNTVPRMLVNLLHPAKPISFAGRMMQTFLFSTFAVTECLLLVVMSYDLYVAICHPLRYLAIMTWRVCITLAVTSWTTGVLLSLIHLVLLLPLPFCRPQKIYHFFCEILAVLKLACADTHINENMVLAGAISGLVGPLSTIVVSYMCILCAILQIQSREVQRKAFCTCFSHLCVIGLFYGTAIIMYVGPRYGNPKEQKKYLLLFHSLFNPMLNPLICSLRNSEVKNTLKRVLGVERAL

Experiments:
Conditions in all cases: stereoisomer not certain
OR2A1 [1] = test system: T1, OR2A1
T1 sequence (whole entry): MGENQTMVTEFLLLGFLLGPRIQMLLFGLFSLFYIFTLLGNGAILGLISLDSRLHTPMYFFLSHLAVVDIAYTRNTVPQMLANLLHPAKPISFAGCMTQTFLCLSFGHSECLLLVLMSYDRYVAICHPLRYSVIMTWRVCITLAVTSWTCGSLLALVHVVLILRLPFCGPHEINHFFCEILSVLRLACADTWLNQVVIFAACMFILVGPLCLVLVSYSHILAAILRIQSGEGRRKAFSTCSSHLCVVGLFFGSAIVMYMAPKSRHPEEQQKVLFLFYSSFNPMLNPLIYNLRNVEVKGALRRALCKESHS
How it was run: (§1)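 Whether a receptor–molecule pair is responsive (active) rests on the original authors' judgment that its measured signal was statistically different from baseline. Pairs without that judgment are non-responsive (inactive). Sources used varied assay methods, commonly transient luciferase assays in mammalian cell lines.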

OR2A1 [2] = test system: T2, OR2A1; remark: listed apart in the source
T2 sequence (whole entry): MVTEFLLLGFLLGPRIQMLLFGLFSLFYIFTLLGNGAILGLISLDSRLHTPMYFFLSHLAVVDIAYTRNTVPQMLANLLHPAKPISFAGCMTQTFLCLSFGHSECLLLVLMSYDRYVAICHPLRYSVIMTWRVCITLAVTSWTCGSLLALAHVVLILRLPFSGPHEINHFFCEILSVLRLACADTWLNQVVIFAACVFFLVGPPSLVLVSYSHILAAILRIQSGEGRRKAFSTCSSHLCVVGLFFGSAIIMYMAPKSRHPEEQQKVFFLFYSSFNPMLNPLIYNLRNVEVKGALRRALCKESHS
How it was run: as §1

OR2A2 (Homo sapiens) = target: T3, OR2A2 (Homo sapiens) (UniProt Q6IF42)
T3 sequence (whole entry): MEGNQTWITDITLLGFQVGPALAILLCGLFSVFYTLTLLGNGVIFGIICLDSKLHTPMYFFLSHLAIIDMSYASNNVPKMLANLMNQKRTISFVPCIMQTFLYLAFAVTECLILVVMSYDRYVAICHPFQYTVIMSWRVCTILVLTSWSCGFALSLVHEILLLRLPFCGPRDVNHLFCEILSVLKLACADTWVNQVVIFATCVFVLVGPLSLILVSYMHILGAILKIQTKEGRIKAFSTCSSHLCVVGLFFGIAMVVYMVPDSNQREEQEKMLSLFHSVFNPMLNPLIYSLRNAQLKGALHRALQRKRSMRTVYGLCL
How it was run: as §1

OR2A25 (Homo sapiens) = target: T4, OR2A25 (Homo sapiens) (UniProt A4D2G3)
T4 sequence (whole entry): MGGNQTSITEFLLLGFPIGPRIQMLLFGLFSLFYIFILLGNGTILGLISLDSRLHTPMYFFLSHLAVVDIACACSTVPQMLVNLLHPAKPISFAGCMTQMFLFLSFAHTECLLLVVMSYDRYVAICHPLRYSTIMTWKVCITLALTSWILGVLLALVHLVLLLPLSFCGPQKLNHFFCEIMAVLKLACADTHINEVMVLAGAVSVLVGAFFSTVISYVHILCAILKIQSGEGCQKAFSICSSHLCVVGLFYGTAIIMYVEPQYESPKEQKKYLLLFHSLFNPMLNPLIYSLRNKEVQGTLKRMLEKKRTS
How it was run: as §1

OR2A2 = test system: T5, OR2A2
T5 sequence (whole entry): T3 sequence (whole entry) with F280L
How it was run: as §1

OR2A4 (Homo sapiens) = target: T6, OR2A4 (Homo sapiens) (UniProt O95047)
T6 sequence (whole entry): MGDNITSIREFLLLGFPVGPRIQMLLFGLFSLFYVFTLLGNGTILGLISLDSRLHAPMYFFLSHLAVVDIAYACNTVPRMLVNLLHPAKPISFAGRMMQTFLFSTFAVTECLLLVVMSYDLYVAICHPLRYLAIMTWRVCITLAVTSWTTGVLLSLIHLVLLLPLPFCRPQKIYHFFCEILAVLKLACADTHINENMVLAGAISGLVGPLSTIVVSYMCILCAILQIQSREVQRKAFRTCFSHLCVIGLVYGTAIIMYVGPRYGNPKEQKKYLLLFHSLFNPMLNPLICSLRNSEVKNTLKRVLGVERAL
How it was run: as §1

OR2A5 (Homo sapiens) = target: T7, OR2A5 (Homo sapiens) (UniProt Q96R48)
T7 sequence (whole entry): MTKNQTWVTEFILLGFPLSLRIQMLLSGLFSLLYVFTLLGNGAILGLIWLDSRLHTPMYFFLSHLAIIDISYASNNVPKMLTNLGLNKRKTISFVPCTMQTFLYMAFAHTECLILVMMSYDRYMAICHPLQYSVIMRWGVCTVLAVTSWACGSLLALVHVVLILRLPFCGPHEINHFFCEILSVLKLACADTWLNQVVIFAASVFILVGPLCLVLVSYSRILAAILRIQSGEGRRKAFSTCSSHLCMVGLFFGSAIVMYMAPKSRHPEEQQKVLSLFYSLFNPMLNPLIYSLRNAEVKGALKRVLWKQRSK
How it was run: as §1

OR2A7 (Homo sapiens) = target: T8, OR2A7 (Homo sapiens) (UniProt Q96R45)
T8 sequence (whole entry): T6 sequence (whole entry) with R9T, R238C, V250F
How it was run: as §1

OR2A7 = test system: T9, OR2A7
T9 sequence (whole entry): T6 sequence (whole entry) with R238C, V250F
How it was run: as §1

OR2AG1 (Homo sapiens) = target: T10, OR2AG1 (Homo sapiens) (UniProt Q9H205)
T10 sequence (whole entry): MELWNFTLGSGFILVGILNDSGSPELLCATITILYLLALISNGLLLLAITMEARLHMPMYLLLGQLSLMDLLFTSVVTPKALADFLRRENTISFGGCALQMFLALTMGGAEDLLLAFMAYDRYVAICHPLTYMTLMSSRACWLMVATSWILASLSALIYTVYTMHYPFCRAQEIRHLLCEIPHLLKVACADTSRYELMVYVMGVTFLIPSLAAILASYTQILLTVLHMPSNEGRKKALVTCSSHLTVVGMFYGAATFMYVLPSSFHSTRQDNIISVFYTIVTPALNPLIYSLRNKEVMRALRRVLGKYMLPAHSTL
How it was run: as §1

OR2AG2 (Homo sapiens) = target: T11, OR2AG2 (Homo sapiens) (UniProt A6NM03)
T11 sequence (whole entry): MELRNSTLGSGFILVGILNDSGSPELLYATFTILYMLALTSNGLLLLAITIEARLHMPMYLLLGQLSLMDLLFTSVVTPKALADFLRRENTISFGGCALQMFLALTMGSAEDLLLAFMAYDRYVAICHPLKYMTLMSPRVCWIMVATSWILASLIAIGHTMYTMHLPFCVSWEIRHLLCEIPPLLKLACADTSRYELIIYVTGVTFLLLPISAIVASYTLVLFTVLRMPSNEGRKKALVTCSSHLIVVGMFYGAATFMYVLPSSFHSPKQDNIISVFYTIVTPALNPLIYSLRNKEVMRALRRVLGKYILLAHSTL
How it was run: as §1

OR2AP1 (Homo sapiens) = target: T12, OR2AP1 (Homo sapiens) (UniProt Q8NGE2)
T12 sequence (whole entry): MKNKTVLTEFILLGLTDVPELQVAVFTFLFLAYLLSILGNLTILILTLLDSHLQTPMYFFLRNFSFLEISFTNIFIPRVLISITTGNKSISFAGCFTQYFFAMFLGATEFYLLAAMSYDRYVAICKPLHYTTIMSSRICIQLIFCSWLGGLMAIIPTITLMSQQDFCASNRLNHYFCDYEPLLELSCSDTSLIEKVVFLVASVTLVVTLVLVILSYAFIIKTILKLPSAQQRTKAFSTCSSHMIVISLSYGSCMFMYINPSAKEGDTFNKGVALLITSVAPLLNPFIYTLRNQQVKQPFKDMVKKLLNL
How it was run: as §1

OR2AT4 (Homo sapiens) = target: T13, OR2AT4 (Homo sapiens) (UniProt A6NND4)
T13 sequence (whole entry): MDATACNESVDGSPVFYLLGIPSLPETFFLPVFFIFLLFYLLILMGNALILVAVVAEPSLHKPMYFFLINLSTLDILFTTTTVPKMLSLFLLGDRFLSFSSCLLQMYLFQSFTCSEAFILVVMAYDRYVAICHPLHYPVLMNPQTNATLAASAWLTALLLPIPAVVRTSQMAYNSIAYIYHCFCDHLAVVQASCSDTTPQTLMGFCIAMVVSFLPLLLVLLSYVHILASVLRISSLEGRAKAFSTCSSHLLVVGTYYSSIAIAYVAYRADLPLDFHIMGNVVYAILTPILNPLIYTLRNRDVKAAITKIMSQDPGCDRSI
How it was run: as §1

OR2B11 (Homo sapiens) = target: T14, OR2B11 (Homo sapiens) (UniProt Q5JQS5)
T14 sequence (whole entry): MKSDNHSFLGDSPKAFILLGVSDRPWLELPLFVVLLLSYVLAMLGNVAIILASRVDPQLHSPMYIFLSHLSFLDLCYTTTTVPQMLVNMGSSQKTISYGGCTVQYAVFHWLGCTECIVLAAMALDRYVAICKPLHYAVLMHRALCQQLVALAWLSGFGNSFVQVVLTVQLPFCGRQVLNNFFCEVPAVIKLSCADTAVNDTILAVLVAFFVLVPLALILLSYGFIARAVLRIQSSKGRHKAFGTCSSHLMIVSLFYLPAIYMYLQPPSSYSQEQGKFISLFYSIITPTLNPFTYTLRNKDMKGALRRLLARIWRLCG
How it was run: as §1

OR2B2 (Homo sapiens) = target: T15, OR2B2 (Homo sapiens) (UniProt Q9GZK3)
T15 sequence (whole entry): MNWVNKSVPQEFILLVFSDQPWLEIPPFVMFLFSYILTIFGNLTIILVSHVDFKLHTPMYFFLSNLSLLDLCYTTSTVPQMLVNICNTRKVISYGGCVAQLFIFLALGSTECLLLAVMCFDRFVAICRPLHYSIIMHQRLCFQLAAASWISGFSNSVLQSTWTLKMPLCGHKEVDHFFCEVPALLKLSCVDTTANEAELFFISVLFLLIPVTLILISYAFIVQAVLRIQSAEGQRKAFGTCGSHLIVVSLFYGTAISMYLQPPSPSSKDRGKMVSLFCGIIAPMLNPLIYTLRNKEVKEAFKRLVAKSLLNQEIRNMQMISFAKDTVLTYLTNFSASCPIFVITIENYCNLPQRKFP
How it was run: as §1

OR2B3 (Homo sapiens) = target: T16, OR2B3 (Homo sapiens) (UniProt O76000)
T16 sequence (whole entry): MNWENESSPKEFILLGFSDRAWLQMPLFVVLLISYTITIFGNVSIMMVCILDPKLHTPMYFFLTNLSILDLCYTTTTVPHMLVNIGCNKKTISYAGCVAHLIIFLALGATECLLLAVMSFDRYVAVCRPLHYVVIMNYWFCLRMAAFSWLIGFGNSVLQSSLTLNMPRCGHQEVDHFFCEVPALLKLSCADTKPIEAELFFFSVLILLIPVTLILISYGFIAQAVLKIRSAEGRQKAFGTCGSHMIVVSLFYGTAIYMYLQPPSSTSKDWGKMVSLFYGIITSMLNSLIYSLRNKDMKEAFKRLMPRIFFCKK
How it was run: as §1

OR2B6 (Homo sapiens) = target: T17, OR2B6 (Homo sapiens) (UniProt P58173)
T17 sequence (whole entry): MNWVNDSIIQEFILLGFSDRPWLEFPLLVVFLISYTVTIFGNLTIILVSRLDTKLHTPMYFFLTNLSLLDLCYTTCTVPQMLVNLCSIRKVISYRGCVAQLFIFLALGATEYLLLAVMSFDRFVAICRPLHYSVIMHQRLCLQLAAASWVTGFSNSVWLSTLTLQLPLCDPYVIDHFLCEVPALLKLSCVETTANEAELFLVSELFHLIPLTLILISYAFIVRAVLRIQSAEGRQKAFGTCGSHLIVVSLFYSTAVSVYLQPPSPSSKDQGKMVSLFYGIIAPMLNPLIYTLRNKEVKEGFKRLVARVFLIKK
How it was run: as §1

OR2B8 = test system: T18, OR2B8
T18 sequence (whole entry): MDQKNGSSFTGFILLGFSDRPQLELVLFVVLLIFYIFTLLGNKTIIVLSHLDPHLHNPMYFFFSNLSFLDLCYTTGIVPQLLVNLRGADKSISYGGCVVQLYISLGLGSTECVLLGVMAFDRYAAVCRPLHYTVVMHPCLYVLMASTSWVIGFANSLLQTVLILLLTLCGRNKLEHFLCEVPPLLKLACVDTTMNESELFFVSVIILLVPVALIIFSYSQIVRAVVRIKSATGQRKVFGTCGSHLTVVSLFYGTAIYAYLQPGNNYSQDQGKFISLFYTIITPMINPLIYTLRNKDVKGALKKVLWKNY
How it was run: as §1

OR2C1 [3] = test system: T19, OR2C1
T19 sequence (whole entry): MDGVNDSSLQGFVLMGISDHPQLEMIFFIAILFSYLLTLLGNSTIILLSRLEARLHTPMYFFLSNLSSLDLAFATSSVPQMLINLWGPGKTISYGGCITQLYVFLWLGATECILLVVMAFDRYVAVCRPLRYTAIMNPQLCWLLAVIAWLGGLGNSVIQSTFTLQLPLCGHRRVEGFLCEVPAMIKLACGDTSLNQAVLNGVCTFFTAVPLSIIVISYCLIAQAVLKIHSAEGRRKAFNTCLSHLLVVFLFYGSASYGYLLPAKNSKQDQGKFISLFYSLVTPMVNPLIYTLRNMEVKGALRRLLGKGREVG
How it was run: as §1

OR2C1 [4] = test system: T20, OR2C1; remark: listed apart in the source
T20 sequence (whole entry): T19 sequence (whole entry) with H229R
How it was run: as §1

Measured: odorant receptor agonist call

CS
inactive: OR2A1 [1] | OR2A1 [2] | OR2A2 (Homo sapiens) | OR2A25 (Homo sapiens) | OR2A2 | OR2A4 (Homo sapiens) | OR2A5 (Homo sapiens) | OR2A7 (Homo sapiens) | OR2A7 | OR2AG1 (Homo sapiens) | OR2AG2 (Homo sapiens) | OR2AP1 (Homo sapiens) | OR2AT4 (Homo sapiens) | OR2B11 (Homo sapiens) | OR2B2 (Homo sapiens) | OR2B3 (Homo sapiens) | OR2B6 (Homo sapiens) | OR2B8 | OR2C1 [3] | OR2C1 [4]
